Results are given in words; binding and its absence hold for the method and conditions named. For some assays here: Binding seen in cells or lysates may run through a third protein. Some results given as binding are weak or reduced against the parent protein; the word gives no strength. Where a sequence is shown, tags or fusion partners need not be part of it.
Key:
[1] = molecular target: T1, hLAG-3/EP fused to the LexA DNA binding domain (pLex-hLAG-3/EP, E478 to L503) (human) (UniProt P0A7C2+P18627); assay: yeast two-hybrid
[2] = molecular target: EP-rich C-terminal region of the PDGF receptor (PDGFR) fused with the LexA BD (human) (UniProt P0A7C2+P09619); assay: yeast two-hybrid, PDGFR C-terminal region fused with the LexA BD
[3] = molecular target: T2, NLS-hLAG-3/I fused to the LexA DNA binding domain (pLex/NLS-hLAG-3/I, R457 to L503) (human) (UniProt P0A7C2+P18627); assay: yeast two-hybrid (HIS3 growth and beta-galactosidase), LexA BD bait and GAL4 AD prey
[4] = molecular target: NLS/hLAG-3/EP fused to the LexA DNA binding domain (pLex/NLS-hLAG-3/EP, E478 to L503) (human) (UniProt P0A7C2+P18627); assay: as above
[5] = molecular target: T1, hLAG-3/EP fused to the LexA DNA binding domain (pLex-hLAG-3/EP, E478 to L503) (human); assay: as above
[6] = molecular target: hLAG-3/I fused to the LexA DNA binding domain (pLex-hLAG-3/I, R457 to L503) (human) (UniProt P0A7C2+P18627); assay: as above
[7] = molecular target: T2, NLS-hLAG-3/I fused to the LexA DNA binding domain (pLex/NLS-hLAG-3/I, R457 to L503) (human); assay: yeast two-hybrid, mating of AMR70 (clone plasmid) with L40 carrying pLex/NLS-hLAG-3/I
[8] = molecular target: T3, in vitro-translated hLAG-3 protein (T7-coupled rabbit reticulocyte lysate) (human) (UniProt P18627); assay: GST pull-down of in vitro-translated hLAG-3
T3 sequence (looked up): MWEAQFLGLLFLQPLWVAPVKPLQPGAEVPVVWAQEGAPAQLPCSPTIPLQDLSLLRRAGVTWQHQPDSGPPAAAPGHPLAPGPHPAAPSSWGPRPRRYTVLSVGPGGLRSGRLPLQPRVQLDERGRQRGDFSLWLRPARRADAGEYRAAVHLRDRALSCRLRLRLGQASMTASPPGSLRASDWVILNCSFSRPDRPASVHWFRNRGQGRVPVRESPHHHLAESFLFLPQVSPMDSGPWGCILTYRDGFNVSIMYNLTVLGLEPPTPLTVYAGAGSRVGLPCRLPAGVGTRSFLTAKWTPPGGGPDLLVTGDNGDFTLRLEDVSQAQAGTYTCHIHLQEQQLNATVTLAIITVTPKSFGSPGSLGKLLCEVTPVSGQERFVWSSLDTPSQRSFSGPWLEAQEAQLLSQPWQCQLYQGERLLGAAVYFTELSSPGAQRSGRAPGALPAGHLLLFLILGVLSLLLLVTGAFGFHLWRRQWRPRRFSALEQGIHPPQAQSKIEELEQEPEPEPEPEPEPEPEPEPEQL

The chains behind the UniProt entries cited, without tags or fusion partners. Where a name states a change or a piece, a line headed by the entry shows the natural chain unless it says otherwise.
UniProt P0A7C2: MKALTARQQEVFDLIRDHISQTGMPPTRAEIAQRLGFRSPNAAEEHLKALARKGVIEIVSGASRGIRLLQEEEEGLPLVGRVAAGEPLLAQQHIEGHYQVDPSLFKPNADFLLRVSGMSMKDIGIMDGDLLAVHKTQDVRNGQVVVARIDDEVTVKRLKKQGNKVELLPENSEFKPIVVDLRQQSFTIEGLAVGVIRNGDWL

[9] = molecular target: T4, natural hLAG-3 (70 kDa) protein present in whole cell lysate of PHA-activated human PBMCs (human) (UniProt P18627); assay: GST pull-down from lysate of activated T cells
T4 sequence (looked up): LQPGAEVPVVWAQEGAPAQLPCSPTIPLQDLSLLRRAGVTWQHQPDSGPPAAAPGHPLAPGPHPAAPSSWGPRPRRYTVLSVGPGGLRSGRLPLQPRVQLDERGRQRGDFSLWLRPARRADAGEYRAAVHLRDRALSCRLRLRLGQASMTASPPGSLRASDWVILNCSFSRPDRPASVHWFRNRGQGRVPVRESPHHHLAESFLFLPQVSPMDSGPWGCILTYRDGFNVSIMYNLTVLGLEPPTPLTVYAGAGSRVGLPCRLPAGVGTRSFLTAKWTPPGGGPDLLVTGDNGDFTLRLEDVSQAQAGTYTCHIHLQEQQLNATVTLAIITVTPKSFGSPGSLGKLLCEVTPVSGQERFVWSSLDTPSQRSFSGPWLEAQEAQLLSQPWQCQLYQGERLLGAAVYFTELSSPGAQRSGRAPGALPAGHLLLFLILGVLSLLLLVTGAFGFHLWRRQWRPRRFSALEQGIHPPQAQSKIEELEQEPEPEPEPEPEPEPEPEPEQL

[10] = molecular target: T4, natural hLAG-3 (70 kDa) protein present in whole cell lysate of PHA-activated human PBMCs (human); assay: GST pull-down from lysate of activated T lymphocytes
[11] = molecular target: T3, in vitro-translated hLAG-3 protein (T7-coupled rabbit reticulocyte lysate) (human); assay: GST pull-down of in vitro-translated hLAG-3 (FIG. 1B)
[12] = molecular target: T3, in vitro-translated hLAG-3 protein (T7-coupled rabbit reticulocyte lysate) (human); assay: GST pull-down of in vitro-translated hLAG-3, Western blot
[13] = molecular target: T4, natural hLAG-3 (70 kDa) protein present in whole cell lysate of PHA-activated human PBMCs (human); assay: GST pull-down from whole cell lysate, Western blot (FIG. 1A)
[14] = molecular target: T4, natural hLAG-3 (70 kDa) protein present in whole cell lysate of PHA-activated human PBMCs (human); assay: GST pull-down from lysate of PHA-activated T lymphocytes, Western blot

Measured: binding

B1: LAP (LAG-3-associated protein) fused to the GAL4 activation domain (pGAD-LAP) (protein, not shown: large carriers)
chain: YLPMQGNPPRRSKSAPPRDLGNLDKGQAASPREPLEPLNFPDPEYKEEEEDQDIQGEISHPDGKVEKVYKNGCRVILFPNGTRKEVSADGKTITVTFFNGDVKQVMPDQRVIYYYAAAQTTHTTYPEGLEVLHFSSGQIEKHYPDGRKEITFPDQTVKNLFPDGQEESIFPDGTIVRVQRDGNKLIEFNNGQRELHTAQFKRREYPDGTVKTVYANGHQETKYRSGRIRVKDKEGNVLMDTEL
binds: [1] | [2] | [3] | [4] | [5] | [6] | [7]

B2: GST-LAP fusion protein (LAP linked to glutathione S-transferase), on glutathione-Sepharose beads (protein, not shown: a dimerising Fc or GST)
chain: B1 chain
binds: [8] | [9] | [10] | [11] | [12] | [13] | [14]

Source: patent US20040171551A1
